We go through three substances from doi:10.1101/2024.08.01.24311333.

By UniProt entry, the sequences of proteins in these tests, tags left out.
UniProt Q12834: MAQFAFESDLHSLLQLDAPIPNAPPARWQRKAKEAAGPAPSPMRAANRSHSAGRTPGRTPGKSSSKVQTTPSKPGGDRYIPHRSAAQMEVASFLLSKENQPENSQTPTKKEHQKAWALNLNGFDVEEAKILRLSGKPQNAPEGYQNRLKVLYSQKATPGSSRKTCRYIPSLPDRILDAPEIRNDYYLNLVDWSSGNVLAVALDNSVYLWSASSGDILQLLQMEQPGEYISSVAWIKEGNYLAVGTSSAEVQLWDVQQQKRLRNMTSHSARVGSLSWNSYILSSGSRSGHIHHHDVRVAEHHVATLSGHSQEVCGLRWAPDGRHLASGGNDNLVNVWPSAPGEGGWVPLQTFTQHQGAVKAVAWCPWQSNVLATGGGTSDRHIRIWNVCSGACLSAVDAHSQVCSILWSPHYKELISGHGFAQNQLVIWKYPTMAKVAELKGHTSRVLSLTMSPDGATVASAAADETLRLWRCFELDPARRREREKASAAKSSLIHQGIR
UniProt Q9UNE7: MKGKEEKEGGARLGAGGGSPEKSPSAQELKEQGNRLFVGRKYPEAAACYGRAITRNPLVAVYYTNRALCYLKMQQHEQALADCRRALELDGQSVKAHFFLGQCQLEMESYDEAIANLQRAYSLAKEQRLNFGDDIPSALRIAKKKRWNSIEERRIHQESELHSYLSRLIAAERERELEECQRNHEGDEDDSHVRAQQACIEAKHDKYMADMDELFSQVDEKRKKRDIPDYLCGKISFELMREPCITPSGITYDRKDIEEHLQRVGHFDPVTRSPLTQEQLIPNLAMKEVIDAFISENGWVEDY
UniProt Q15386: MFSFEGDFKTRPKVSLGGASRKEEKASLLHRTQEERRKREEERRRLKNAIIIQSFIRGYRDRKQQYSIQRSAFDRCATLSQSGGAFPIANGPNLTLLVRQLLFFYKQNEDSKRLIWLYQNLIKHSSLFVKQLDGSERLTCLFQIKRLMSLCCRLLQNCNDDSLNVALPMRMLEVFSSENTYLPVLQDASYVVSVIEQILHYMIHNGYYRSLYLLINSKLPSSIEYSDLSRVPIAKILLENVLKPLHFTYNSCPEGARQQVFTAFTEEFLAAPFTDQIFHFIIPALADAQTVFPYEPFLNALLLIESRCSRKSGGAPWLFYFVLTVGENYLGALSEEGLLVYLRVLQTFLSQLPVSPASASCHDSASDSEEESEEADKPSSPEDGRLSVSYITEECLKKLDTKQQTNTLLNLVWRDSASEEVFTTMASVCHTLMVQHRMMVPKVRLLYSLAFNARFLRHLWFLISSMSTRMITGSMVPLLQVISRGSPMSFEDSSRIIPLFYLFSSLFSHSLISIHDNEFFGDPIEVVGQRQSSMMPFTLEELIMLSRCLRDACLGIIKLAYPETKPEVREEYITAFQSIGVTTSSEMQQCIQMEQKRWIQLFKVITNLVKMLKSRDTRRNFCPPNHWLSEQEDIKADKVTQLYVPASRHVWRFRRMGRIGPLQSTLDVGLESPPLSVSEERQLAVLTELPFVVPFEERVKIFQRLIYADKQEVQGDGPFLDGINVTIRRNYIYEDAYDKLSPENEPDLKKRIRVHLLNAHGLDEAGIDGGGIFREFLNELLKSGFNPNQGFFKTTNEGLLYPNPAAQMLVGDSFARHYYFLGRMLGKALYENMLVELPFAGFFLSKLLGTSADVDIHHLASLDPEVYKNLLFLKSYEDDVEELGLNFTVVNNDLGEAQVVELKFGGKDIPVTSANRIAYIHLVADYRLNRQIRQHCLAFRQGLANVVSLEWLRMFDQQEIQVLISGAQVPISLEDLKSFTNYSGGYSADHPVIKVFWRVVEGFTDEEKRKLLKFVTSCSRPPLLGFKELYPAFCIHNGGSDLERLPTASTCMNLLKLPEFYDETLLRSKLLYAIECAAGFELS

No constants are given. Whether binding was seen depends on the method and setting. Binding seen in cells or lysates may run through a third protein. Here binding means that the protein was enriched with, or labelled near, the bait; the list need not be complete. Tags and fused reporters may be left off the sequences shown.

The target in the test is T1, Cadherin-26, FLAG-tagged, full-CDH26 (1-832) (human) (UniProt Q8IXH8).
T1 sequence: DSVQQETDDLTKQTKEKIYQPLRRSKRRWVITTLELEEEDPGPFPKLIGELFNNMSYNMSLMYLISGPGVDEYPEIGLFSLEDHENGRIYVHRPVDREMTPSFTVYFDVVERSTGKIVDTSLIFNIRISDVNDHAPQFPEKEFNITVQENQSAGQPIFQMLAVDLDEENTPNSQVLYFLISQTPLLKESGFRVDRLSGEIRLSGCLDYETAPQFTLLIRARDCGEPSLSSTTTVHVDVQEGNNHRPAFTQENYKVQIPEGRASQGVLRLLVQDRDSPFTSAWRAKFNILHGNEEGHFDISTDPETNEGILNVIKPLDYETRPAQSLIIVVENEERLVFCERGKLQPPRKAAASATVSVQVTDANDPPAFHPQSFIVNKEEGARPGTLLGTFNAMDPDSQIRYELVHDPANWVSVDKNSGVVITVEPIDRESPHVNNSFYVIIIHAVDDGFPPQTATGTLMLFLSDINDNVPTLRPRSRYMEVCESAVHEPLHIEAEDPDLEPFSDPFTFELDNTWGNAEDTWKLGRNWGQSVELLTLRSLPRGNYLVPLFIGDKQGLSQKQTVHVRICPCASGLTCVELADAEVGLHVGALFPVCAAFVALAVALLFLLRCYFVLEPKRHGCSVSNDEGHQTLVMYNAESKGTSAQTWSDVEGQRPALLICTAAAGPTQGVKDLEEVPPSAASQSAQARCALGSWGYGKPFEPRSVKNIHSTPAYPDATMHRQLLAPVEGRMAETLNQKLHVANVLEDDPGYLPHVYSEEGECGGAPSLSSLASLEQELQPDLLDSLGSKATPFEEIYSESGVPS
As to the kind of experiment: affinity purification with mass spectrometry.
On to CDC20 (from UniProt Q12834 1-499), for which the binding entry is “binds”.
To “STIP1 homology and U-box-containing protein 1 (from UniProt Q9UNE7 1-303) (enzyme)” belongs “binds”; to “UBE3C (from UniProt Q15386 1-1083) (enzyme)”, “binds”.
